Measured values reported in PMC6796912.
Results are given in words; binding and its absence hold for the method and conditions named. Binding seen in cells or lysates may run through a third protein. Some binding calls cover weakened binding; strength is not graded here. Tags and fused reporters may be left off the sequences shown.

Chains of the proteins cited; added tags and fusions are not shown. Lines headed by an entry give the natural chain unless they say otherwise; changes in a name come on top.
UniProt P38110: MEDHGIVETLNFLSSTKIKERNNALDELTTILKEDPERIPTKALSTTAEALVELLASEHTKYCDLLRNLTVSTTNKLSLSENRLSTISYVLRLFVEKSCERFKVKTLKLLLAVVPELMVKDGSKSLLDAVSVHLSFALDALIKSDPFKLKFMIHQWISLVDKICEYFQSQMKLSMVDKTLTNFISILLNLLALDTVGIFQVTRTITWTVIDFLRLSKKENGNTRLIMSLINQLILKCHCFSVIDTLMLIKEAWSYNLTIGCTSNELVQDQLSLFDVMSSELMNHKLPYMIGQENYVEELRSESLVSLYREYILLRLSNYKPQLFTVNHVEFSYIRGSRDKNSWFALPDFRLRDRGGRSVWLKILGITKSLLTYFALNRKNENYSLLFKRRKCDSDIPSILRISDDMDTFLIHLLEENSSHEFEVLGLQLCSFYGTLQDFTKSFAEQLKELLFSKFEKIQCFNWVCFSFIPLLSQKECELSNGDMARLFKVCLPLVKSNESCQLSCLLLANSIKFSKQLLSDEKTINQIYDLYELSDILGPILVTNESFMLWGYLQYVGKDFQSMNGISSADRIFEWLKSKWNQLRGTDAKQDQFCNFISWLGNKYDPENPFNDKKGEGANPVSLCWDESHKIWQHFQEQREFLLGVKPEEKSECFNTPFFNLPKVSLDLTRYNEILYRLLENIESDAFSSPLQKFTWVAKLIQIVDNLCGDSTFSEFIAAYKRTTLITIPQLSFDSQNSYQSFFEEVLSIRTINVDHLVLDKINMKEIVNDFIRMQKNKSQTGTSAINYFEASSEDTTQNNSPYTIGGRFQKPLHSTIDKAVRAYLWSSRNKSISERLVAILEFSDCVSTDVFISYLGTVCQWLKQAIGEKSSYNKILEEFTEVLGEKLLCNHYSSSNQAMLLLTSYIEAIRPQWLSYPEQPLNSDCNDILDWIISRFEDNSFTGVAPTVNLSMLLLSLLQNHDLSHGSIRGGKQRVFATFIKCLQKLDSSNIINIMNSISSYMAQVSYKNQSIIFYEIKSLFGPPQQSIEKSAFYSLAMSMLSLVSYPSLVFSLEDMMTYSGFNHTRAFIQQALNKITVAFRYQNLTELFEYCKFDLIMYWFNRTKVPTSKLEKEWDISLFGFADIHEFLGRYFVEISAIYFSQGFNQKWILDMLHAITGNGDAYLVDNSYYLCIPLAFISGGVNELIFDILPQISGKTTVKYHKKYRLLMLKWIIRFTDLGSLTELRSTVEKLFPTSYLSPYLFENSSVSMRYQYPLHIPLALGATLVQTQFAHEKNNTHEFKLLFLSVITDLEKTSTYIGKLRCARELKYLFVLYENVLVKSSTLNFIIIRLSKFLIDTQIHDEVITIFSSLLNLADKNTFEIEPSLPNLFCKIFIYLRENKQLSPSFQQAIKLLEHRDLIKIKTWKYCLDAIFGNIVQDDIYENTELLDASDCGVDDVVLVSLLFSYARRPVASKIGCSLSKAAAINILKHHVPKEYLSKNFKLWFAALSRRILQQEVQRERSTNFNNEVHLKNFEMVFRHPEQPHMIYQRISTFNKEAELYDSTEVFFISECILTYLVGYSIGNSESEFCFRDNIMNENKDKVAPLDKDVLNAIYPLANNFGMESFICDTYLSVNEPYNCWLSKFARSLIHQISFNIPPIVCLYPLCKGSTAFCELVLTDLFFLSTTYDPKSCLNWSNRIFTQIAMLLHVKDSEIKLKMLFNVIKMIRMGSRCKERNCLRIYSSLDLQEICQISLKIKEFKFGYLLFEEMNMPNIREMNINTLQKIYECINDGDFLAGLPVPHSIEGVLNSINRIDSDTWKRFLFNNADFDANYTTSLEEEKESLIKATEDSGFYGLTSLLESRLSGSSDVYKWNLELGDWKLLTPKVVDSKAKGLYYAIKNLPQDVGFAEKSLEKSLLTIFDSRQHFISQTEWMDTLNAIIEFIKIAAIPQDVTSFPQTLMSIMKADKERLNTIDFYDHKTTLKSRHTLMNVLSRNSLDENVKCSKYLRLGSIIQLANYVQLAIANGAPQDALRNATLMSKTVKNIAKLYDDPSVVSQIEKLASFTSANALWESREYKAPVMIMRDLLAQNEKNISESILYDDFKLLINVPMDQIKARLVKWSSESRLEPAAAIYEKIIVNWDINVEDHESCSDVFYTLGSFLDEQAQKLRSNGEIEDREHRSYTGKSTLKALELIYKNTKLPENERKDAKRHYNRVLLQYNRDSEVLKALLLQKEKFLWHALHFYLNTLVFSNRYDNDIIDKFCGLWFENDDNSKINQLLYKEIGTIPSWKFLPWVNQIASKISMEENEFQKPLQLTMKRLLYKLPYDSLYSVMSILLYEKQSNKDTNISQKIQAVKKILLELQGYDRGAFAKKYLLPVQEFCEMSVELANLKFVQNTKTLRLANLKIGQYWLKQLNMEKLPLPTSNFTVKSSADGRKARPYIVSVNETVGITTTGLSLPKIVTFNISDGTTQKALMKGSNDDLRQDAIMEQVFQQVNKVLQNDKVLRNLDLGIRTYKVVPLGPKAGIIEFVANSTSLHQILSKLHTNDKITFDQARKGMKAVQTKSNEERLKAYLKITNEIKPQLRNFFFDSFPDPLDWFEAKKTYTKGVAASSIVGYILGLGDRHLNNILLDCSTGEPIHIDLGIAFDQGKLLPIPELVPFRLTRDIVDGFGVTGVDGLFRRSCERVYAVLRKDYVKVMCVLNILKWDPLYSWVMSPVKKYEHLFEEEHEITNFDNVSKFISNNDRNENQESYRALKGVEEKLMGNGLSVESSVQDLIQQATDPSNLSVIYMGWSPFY

Molecular target: T1, GST-Xrs2 (full-length S. cerevisiae Xrs2) (S. cerevisiae) (UniProt P33301)
T1 sequence: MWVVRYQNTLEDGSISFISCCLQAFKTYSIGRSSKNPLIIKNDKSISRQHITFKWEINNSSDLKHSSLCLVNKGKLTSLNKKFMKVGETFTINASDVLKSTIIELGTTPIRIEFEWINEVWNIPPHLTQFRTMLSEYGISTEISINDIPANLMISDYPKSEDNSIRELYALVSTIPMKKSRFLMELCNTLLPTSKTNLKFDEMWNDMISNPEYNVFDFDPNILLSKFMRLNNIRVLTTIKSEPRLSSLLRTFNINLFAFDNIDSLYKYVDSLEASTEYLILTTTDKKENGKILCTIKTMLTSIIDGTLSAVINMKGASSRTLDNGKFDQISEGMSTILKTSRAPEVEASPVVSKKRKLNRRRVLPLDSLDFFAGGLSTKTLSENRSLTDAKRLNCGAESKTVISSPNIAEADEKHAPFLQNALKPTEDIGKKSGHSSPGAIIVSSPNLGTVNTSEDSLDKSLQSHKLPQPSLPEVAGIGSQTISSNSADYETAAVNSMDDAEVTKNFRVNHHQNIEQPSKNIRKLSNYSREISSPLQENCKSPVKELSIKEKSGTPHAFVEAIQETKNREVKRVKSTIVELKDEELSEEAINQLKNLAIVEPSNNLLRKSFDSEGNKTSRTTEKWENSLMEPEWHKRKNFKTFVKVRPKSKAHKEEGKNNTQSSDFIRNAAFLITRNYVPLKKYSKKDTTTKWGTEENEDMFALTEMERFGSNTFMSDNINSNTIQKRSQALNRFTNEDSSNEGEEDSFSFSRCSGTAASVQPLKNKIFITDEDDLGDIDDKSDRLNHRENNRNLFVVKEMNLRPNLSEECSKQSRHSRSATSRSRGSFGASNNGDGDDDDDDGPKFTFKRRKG
Assay: pull-down; glutathione sepharose saturated with full-length GST-Xrs2 added to lysates of yeast expressing wild-type or mutant Tel1; 2 h at 4 °C, washed 3 times with lysis buffer; immunoblot with anti-PAP antibody; only the target purified

Tel1 K2751E (TAP-tagged) (from UniProt P38110 1-2787) (enzyme)
binding: binds weakly

Tel1 F2636A (TAP-tagged) (from UniProt P38110 1-2787) (enzyme)
binding: binds weakly

wild-type Tel1 (TAP-tagged) in yeast lysate (from UniProt P38110 1-2787) (enzyme)
binding: binds
